Experimental data taken from the supplement of paper PMC10849652.
Some of the results follow.

Protein sequences, listed by entry. Tags and fused reporters are not part of them. Lines headed by an entry give the natural chain unless they say otherwise; changes in a name come on top.
UniProt Q8N806: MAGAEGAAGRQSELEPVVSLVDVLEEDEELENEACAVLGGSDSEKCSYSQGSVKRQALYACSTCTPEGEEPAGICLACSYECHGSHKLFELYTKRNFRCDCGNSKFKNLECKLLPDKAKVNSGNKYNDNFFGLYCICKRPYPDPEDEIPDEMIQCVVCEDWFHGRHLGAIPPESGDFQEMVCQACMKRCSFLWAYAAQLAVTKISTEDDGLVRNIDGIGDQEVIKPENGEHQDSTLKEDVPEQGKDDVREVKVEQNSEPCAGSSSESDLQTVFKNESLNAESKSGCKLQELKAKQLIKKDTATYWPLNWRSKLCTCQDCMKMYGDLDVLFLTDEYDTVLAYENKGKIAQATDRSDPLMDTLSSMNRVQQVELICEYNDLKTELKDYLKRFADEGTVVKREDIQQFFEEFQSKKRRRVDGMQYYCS
UniProt Q16881, whole entry, looked up: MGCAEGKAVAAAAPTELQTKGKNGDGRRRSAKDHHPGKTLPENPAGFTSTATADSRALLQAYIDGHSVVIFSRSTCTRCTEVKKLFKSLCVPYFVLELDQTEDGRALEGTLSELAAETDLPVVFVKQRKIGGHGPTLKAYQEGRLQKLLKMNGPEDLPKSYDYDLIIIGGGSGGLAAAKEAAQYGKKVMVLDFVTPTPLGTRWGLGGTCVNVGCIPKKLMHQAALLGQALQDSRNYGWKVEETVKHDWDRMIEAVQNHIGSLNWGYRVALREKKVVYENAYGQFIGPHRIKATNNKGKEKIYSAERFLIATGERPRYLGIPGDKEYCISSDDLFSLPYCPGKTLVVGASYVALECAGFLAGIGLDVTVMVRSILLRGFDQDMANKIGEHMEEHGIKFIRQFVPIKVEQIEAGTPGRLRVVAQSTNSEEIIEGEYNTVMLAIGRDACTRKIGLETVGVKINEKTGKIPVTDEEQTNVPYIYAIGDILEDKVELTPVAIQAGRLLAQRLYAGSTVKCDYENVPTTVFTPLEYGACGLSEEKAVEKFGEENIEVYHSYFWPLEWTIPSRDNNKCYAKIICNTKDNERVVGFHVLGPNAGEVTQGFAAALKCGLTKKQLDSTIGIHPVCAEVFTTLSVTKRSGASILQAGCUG
UniProt O14530: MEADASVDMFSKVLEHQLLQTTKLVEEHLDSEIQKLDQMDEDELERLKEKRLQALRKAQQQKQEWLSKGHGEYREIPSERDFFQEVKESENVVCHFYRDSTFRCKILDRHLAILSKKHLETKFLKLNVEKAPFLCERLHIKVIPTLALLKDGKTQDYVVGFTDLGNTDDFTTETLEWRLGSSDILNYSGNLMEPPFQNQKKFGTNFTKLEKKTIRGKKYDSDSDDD
UniProt Q96J42: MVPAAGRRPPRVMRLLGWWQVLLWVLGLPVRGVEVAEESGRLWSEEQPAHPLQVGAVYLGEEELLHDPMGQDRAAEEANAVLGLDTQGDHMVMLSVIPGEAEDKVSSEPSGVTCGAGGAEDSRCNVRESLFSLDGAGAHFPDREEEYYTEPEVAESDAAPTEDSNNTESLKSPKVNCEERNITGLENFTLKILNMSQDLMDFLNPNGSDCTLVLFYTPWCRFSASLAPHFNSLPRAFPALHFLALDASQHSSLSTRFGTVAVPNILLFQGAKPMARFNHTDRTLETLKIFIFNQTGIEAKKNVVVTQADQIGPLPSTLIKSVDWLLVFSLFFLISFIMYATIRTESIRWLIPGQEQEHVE
UniProt Q9UMX0, whole entry, looked up: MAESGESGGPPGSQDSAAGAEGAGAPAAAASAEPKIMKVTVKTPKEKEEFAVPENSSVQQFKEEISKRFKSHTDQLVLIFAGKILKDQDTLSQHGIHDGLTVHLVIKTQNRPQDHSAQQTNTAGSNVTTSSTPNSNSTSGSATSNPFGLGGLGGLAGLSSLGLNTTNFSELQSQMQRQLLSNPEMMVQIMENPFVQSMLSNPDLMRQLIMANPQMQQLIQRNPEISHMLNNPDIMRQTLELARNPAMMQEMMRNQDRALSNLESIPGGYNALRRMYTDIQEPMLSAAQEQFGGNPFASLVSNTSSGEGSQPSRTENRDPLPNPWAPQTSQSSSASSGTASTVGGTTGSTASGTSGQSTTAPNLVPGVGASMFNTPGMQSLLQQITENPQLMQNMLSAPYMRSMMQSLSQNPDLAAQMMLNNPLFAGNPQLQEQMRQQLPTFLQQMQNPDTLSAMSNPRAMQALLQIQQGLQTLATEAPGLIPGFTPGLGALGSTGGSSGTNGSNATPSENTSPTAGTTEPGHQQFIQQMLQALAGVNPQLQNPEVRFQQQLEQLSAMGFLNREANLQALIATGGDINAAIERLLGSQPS
UniProt P15374: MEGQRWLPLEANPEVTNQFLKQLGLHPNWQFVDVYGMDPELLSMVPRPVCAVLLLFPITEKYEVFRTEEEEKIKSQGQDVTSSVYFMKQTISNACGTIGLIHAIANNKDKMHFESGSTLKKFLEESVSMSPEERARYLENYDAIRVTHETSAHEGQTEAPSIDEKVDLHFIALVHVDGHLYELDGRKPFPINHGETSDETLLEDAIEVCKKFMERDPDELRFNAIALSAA
UniProt Q16222: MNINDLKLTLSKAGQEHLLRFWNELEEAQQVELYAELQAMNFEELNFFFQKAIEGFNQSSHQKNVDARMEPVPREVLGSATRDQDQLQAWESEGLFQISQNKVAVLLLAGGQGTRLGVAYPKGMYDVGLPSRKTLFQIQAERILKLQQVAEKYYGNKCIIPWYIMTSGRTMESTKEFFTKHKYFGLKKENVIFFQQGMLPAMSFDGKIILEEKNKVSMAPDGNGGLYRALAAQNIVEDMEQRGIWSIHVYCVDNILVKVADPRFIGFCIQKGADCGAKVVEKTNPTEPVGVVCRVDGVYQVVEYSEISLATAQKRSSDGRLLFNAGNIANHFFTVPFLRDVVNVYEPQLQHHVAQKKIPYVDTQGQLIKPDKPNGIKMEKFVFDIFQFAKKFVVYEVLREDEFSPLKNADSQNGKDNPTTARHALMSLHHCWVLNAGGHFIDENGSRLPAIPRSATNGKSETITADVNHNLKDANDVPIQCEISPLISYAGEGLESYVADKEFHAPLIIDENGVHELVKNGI
UniProt P40222: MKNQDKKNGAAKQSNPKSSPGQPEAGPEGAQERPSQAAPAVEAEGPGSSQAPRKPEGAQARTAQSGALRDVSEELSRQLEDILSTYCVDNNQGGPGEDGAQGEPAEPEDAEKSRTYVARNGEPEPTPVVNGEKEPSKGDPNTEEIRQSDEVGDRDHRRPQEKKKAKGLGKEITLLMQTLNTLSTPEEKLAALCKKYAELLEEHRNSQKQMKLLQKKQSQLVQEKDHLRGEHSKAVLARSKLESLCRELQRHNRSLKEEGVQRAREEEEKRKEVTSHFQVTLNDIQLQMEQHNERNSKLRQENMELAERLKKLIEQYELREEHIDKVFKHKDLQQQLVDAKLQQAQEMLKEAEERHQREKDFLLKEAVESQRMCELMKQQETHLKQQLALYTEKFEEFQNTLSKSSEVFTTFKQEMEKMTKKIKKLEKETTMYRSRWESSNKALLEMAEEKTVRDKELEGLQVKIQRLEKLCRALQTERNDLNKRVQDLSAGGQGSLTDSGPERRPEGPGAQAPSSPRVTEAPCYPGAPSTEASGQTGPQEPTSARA
UniProt Q8TBC4: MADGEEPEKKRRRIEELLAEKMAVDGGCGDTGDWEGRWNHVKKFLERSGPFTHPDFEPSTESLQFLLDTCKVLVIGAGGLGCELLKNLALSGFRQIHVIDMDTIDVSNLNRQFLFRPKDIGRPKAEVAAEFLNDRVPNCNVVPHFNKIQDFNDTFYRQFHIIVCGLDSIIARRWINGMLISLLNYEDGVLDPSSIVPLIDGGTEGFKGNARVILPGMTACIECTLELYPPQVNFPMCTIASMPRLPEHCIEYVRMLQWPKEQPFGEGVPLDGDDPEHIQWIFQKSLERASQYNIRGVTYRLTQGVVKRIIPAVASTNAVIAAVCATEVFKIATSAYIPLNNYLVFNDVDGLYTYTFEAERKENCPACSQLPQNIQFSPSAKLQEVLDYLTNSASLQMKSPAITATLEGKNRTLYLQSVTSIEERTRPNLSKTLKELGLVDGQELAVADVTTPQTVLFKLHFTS
UniProt Q9NX01: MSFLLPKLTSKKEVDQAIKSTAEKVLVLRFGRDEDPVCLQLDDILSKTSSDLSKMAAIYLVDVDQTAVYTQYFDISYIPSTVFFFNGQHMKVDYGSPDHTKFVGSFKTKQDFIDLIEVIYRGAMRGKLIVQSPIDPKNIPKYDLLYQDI
UniProt A6NNZ2, whole entry, looked up: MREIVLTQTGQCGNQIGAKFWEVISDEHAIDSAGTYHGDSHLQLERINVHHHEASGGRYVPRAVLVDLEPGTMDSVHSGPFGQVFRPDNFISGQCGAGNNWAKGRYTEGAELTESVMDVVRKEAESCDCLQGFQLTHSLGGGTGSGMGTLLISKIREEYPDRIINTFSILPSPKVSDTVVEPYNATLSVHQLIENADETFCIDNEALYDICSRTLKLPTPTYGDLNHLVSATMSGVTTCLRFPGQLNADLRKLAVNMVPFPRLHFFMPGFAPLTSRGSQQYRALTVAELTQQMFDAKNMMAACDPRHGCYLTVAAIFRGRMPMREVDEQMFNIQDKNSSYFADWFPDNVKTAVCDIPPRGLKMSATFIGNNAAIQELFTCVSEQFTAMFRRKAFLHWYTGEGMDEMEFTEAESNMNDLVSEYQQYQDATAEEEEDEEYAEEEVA
UniProt P11441: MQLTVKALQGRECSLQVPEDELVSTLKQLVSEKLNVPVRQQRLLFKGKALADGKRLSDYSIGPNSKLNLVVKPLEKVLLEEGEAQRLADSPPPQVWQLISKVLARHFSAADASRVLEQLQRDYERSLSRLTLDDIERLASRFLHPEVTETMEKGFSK
UniProt Q3B726, whole entry, looked up: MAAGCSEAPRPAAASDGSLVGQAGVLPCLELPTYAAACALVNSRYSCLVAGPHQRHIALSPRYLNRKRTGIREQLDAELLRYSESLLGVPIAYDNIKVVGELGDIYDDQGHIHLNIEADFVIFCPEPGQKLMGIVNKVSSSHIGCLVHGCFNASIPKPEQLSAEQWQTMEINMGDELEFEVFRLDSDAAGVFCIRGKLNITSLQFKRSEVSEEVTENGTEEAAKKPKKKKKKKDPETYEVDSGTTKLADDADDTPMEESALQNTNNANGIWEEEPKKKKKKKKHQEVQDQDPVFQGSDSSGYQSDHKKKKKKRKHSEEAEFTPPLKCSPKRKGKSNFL
UniProt P49459, whole entry, looked up: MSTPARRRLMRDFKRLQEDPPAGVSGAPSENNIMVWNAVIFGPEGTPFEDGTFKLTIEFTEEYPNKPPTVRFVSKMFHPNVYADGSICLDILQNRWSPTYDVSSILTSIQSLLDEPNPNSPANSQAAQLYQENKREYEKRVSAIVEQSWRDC
UniProt Q92575: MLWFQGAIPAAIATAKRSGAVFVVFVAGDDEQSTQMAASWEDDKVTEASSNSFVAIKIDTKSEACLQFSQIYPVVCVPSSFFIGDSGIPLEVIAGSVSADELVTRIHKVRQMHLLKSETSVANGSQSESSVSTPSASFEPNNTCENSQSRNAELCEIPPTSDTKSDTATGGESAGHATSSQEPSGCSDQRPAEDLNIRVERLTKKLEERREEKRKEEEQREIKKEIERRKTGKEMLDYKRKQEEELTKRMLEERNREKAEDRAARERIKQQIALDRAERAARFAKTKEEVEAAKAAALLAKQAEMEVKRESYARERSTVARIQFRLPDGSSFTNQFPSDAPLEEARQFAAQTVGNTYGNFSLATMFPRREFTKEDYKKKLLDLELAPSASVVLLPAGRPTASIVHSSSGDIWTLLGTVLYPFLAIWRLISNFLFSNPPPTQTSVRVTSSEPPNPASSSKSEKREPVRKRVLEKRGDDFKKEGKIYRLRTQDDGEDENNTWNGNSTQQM
UniProt P62253: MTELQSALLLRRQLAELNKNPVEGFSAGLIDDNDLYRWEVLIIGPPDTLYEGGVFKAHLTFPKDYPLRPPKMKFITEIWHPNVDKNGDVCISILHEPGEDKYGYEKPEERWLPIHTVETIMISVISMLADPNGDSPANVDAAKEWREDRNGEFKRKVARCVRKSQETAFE
UniProt Q8NBS9: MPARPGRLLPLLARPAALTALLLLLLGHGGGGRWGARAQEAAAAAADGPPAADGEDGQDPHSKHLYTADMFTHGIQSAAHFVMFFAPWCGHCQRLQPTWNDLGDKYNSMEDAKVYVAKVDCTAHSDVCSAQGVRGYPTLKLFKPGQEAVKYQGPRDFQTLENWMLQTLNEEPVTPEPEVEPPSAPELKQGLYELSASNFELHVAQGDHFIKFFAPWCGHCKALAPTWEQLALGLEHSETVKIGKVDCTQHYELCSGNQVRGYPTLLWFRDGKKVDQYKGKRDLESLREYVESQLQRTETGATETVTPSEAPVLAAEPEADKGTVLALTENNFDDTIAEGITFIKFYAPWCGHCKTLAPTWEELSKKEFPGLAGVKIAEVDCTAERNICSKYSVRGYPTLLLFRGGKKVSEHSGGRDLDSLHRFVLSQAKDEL
UniProt P61086: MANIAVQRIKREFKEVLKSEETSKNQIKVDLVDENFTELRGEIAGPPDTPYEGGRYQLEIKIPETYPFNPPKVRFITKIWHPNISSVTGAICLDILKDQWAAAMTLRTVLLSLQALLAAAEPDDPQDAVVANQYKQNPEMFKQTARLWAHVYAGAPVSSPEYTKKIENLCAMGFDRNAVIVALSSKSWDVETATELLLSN

Experiments:
Assay in all cases: log2 fold change, soluble protein after heating vs DMSO (PISA); higher = thermal stabilisation; K562 lysate, 10 uM; active = over 0.2 and 3.5 SD of the protein, either way, in both replicates (recomputed)
[1] = compound: C1=CC=C(C=C1)[C@H](COC2=CC3=C(C=C2)NC(=O)N3)NC(=O)C4=CC=CN(C4=O)CC5=CC(=C(C=C5)F)F
In short: (§1)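 Soluble protein was defined as the supernatant remaining after 21,000xg for 90 min, following pooling of heated aliquots and adjustment to 0.5% NP-40 at 4°C. Before that, crude K562 extract at 1 mg/mL protein in PBS pH 7.4 with 1 mM MgCl2 was treated with 10 μM compound for 30 min and heated for 3 min across 48°C-58°C. Quantification used TMTpro 16plex LC-MS/MS with channel sums equalised, and values are log-two fold changes in thermal stability relative to solvent controls from duplicates.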

[2] = compound: CC1=C(SC2=C1C(=N[C@H](C3=NN=C(N32)C)CC(=O)N)C4=CC=C(C=C4)Cl)C
In short: as §1

[3] = compound: CC1=C2C(=CC=C1)N=C(N(C2=O)C3=CC=CC=C3C)CN4C=NC5=C(N=CN=C54)N
In short: as §1

[4] = compound: Cc1sc2c(c1C)C(c1ccc(Cl)cc1)=N[C@@H](CC(=O)OC(C)(C)C)c1nnc(C)n1-2
In short: as §1

[5] = compound: c1ccc([C@@H]2C[C@H]2NC2CCNCC2)cc1
In short: as §1

Measured: log2 fold change

UBR7 (UniProt Q8N806)
inactive: [1] 0.048 | [2] -0.005 | [3] 0.023 | [4] -0.036 | [5] 0.11

TXNRD1 (UniProt Q16881)
inactive: [1] -0.003 | [2] 0.034 | [3] 0.002 | [4] -0.033 | [5] -0.034

TXNDC9 (UniProt O14530)
inactive: [1] -0.004 | [2] 0.031 | [3] 0.017 | [4] -0.035 | [5] -0.061

Quoted from above (2 entries):
TXNRD1 (UniProt Q16881)
inactive: [1] -0.003 | [2] 0.034 | [3] 0.002 | [4] -0.033 | [5] -0.034

TXNDC9 (UniProt O14530)
inactive: [1] -0.004 | [2] 0.031 | [3] 0.017 | [4] -0.035 | [5] -0.061

The list continues.

TXNDC15 (UniProt Q96J42)
inactive: [1] 0.004 | [2] -0.012 | [3] 0.009 | [4] -0.094 | [5] 0.042

UBQLN1 (UniProt Q9UMX0)
inactive: [1] -0.068 | [2] -0.03 | [3] -0.046 | [4] 0.018 | [5] 0.051

UCHL3 (UniProt P15374)
inactive: [1] -0.094 | [2] -0.094 | [3] -0.021 | [4] 0 | [5] -0.01

UAP1 (UniProt Q16222)
inactive: [1] 0.013 | [2] 0.028 | [3] -0.003 | [4] 0.026 | [5] 0.016

UBA6
inactive: [1] -0.008 | [2] -0.026 | [3] 0.016 | [4] 0.01 | [5] 0.009

TXNRD1 isoform 7 (UniProt Q16881)
inactive: [1] 0.106 | [2] -0.025 | [3] -0.021 | [4] -0.079 | [5] -0.231

TXLNA (UniProt P40222)
inactive: [1] 0.012 | [2] 0.01 | [3] -0.007 | [4] 0.001 | [5] 0.015

UBA3 (UniProt Q8TBC4)
inactive: [1] -0.023 | [2] 0.027 | [3] 0.013 | [4] -0.019 | [5] 0

UBE2I (UniProt P63279)
inactive: [1] 0.019 | [2] -0.022 | [3] -0.013 | [4] 0.004 | [5] -0.063

UBE2M (UniProt P61081)
inactive: [1] -0.028 | [2] 0.016 | [3] -0.013 | [4] 0.03 | [5] -0.053

TUT7 (UniProt Q5VYS8)
inactive: [1] -0.032 | [2] 0.003 | [3] 0.05 | [4] -0.055 | [5] 0.128

TUT4 (UniProt Q5TAX3)
inactive: [1] -0.032 | [2] -0.024 | [3] 0.035 | [4] 0.009 | [5] -0.021

TXNL4B (UniProt Q9NX01)
inactive: [1] -0.444 | [2] 0.404 | [3] 0.242 | [4] 0.008 | [5] 0.105

TUBB8B (UniProt A6NNZ2)
inactive: [1] -0.024 | [2] 0.093 | [3] -0.038 | [4] 0.032 | [5] -0.059

UBL4A (UniProt P11441)
inactive: [1] -0.029 | [2] -0.003 | [3] -0.017 | [4] 0.142 | [5] 0.073

TWISTNB (UniProt Q3B726)
inactive: [1] -0.009 | [2] 0.031 | [3] 0.117 | [4] -0.018 | [5] 0.039

UBE2A (UniProt P49459)
inactive: [1] -0.011 | [2] 0.086 | [3] -0.043 | [4] -0.031 | [5] 0.099

UBXN6 (UniProt Q9BZV1)
inactive: [1] -0.03 | [2] 0.027 | [3] 0.03 | [4] 0.022 | [5] 0.031

UBXN4 (UniProt Q92575)
inactive: [1] 0.024 | [2] -0.047 | [3] -0.004 | [4] -0.065 | [5] -0.064

UBE2G1 (UniProt P62253)
inactive: [1] -0.029 | [2] 0.014 | [3] 0.006 | [4] -0.028 | [5] 0.017

TXNDC5 (UniProt Q8NBS9)
inactive: [1] 0.059 | [2] 0.005 | [3] -0.023 | [4] 0.017 | [5] -0.004

UBE2K (UniProt P61086)
inactive: [1] 0.049 | [2] -0.032 | [3] -0.004 | [4] -0.018 | [5] -0.06
